Laboratory results as given in US7521527B2 (Societe de Conseils de Recherches et d'Applications …, priority 2003, dated 2009).

Assay: general procedure: Boc solid-phase peptide synthesis; 4-methylbenzhydrylamine (MBHA) resin, 0.91 mmol/g; HBTU/DIEA
Settings: whole synthesis, analytical HPLC, scale of the general procedure 0.20 mmol

“(Aib^8,35, Arg^2, Phe^3 )hGLP-1 (7-36)NH2” and (Aib^8,35, Arg^26)hGLP-1(7-36)NH2 are the same in “final HPLC purity” value: 99% for the first, 99% for the second.

(Aib^8,35, Arg^26,34)hGLP-1(7-36)NH2 and (Aib^8,35, Arg^34)hGLP-1(7-36)NH2 are the same in “final HPLC purity” value: 99% for the first, 99% for the second.

First: (Aib^8,35, Phe^31, Arg^34)hGLP-1(7-36)NH2
Second: (Aib^8, Arg^26,34, β-Ala^35)hGLP-1(7-36)NH2
The “final HPLC purity” value of the first is higher: 99% for the first, 97% for the second.

“(Aib^8,^35, Arg^26,^34, Phe^31 )hGLP-1(7-36)NH2” and “(Aib^835, Arg^26,34, 2Nal^31)hGLP-1(7-36)NH2” are the same in “final HPLC purity” value: 99% for the first, 99% for the second.

Assay: general procedure: Boc solid-phase peptide synthesis; MBHA resin; HBTU/DIEA
Settings: whole synthesis, scale 0.20 mmol

For “(Aib^8,^35, Arg^26,^34, Phe^31 )hGLP-1(7-36)NH2”, the isolated mass was “Approximately 18 mg”.
